Results are given in words; binding and its absence hold for the method and conditions named. Some entries that bind do so weakly or less than the wild type.
Tests used:
VEGFR2-Fc [1] = target: VEGFR2-Fc (UniProt P35968); assay: soluble protein (Octet)
VEGFR2-Fc [2] = target: VEGFR2-Fc (UniProt P35968); assay: Octet, soluble proteins
VEGFR2-Fc [3] = target: VEGFR2-Fc (UniProt P35968); assay: yeast surface display titration
VEGFR2-Fc [4] = target: VEGFR2-Fc (UniProt P35968); assay: yeast surface display, titration with soluble VEGFR2-Fc, % maximum VEGFR2-Fc bound
[5] = target: prostate specific membrane antigen (PSMA) (UniProt Q04609); assay: yeast surface display titration
[6] = target: prostate specific membrane antigen (PSMA) (UniProt Q04609); assay: yeast surface display, titration with soluble PSMA, PSMA bound in arbitrary fluorescence

Sequences of proteins named here, by UniProt entry; tags and fusion partners are left off. Residues count along the entry.
UniProt P35968, residues 20-764: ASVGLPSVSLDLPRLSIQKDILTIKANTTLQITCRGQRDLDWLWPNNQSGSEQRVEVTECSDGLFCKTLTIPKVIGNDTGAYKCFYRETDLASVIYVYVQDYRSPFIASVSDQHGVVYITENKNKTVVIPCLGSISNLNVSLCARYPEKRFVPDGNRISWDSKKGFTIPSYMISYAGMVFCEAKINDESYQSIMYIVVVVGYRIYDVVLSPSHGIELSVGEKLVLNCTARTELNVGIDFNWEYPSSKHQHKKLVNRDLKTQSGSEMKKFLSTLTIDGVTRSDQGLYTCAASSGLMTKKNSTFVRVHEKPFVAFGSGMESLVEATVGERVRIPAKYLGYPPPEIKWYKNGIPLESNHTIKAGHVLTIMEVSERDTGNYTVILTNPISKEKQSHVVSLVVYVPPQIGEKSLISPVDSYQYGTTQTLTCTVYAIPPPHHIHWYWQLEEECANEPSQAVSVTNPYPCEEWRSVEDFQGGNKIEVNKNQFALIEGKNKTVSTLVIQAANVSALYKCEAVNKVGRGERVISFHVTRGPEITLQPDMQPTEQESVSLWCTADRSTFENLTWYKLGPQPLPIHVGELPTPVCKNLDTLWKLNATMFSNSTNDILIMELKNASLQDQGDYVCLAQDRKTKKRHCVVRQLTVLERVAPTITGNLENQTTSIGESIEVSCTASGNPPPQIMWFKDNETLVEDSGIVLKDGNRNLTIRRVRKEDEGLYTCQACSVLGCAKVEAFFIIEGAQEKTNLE
UniProt Q04609, residues 44-750: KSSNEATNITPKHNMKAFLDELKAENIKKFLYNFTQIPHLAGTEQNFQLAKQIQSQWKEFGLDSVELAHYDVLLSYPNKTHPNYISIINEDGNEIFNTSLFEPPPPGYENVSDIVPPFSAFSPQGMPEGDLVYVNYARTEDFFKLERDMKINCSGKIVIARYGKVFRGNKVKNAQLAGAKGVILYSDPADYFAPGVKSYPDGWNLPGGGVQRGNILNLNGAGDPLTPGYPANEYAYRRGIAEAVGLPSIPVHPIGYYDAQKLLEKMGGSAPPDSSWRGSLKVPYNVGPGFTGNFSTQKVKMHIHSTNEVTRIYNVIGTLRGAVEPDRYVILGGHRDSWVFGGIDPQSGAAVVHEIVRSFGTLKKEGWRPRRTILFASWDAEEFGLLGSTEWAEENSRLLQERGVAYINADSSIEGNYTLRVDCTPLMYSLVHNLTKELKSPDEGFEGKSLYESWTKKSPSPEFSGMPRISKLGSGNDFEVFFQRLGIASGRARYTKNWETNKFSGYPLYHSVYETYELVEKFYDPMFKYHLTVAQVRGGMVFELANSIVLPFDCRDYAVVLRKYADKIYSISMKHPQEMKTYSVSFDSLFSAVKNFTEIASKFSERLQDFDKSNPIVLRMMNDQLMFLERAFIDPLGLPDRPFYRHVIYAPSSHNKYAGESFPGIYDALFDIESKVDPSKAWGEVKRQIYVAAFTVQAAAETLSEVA

Measured: binding

B1: scVEGFmut (ligand)
chain: APMAEGGGQNHHEVVKAMDVYQRSYCHPIETLVDIFQEYPDEIEYIFKPSCVPLMRCGGCCNDAGLECVPTEESNITMQIMRIKPHQGQHIGEMSFLQHNKCECRPKKDRARQEKCDKPRRGGGGSGGGGSGGGGSGGGGSAPMAEGGGQNHHEVVKFMDVYQRSYCHPIETLVDIFQEYPDEIEYAFKPSCVPLMRCGGCCNDEGLECVPTEESNITMQIMRAKPHQGQHIGEMSFLQHNKCECRPKKDRARQEKCDKPRR
binds: VEGFR2-Fc [1] | VEGFR2-Fc [2] | VEGFR2-Fc [3] | VEGFR2-Fc [4]

B2: VEGFR2/PSMA protein (designed binder)
chain: EVVKAMDVYQRSYCHPIETLVDIFQEYPDEIEYIFKPSCVPLMRCGGCCNDAGLECVPTEESNITMQIMRIKPHQGQHIGEMSFLQHNKCECRPKKDGGGGSGGGGSGGGGSGGGGSEVVKFMDVYQRSYCHPIETLVDIFQEYPSIASWNPWMAFKPSCVPLMRCGGCCNDEGLECVPTEESNITMQIMRNRLFRYLPVRHIGEMSFLQHNKCECRPKKD
not listed: VEGFR2-Fc [2]
binds: all other assays above

From patent US20170204150A1
